Paper PMC7373794
Results are given in words; binding and its absence hold for the method and conditions named. Binding calls can cover weak binding; strength is not graded here. Where a sequence is shown, tags or fusion partners need not be part of it.

Target: soluble C-terminal extension of ALA10 fused to the GAL4 binding domain (Arabidopsis thaliana)
Experiment: two-hybrid; GAL4 1-by-1 Y2H interaction assay (Hybrigenics Service); serial dilutions plated without tryptophane and leucine, without tryptophane, leucine and histidine, and the latter with 1 mM 3-aminotriazole

B1: full length PUB11 fused to the activation domain (protein, UniProt Q8GUG9 1-612)
chain: MAGGIVSPASLLDLIADIVEIPLNTGMFKKDCADLTRRVCLLTHLLEEIRDSTPIDSAASSSSENDWWSDLVVGLQAAKRLLSTARFQARDSSDGAAKRISFQFQCVTWKLEKALSNLPYDLYDISDEVGEQVELARSQLRRAMQRYGSLNSNKFSSALSEPMERDGFSNVIKIKAEEKLESVSETLHFGEEEEKQSSPPLRRSSSISLAYYLSKDADTDRLDKMVNKNTDESKKSDKLTIPVDFLCPVSLELMKDPVIVATGQTYERAYIQRWIDCGNLTCPKTQQKLENFTLTPNYVLRSLISRWCAEHNIEQPAGYINGRTKNSGDMSVIRALVQRLSSRSTEDRRNAVSEIRSLSKRSTDNRILIAEAGAIPVLVNLLTSEDVATQENAITCVLNLSIYENNKELIMFAGAVTSIVQVLRAGTMEARENAAATLFSLSLADENKIIIGGSGAIPALVDLLENGTPRGKKDAATALFNLCIYHGNKGRAVRAGIVTALVKMLSDSTRHRMVDEALTILSVLANNQDAKSAIVKANTLPALIGILQTDQTRNRENAAAILLSLCKRDTEKLITIGRLGAVVPLMDLSKNGTERGKRKAISLLELLRKACQ
- binding: binds
